This is an account of results in PMC8063935 (Pharmaceutics, 2021).

HELM strings list residues between dots; [ac] is acetyl, [am] amide, other brackets name non-standard units.

The series is described as follows: peptide made by a vendor. The following applies: whole synthesis.
In the case of PEPTIDE1{R.R.R.W.W.W.W.V.[am]}$$$$V2.0, the “purity (crude or final not stated)” value worked out at 95.79%.
With PEPTIDE1{W.W.W.L.R.R.R.W.[am]}$$$$V2.0 the figure was 95.33%.
As for RKIWWWWL-NH2, the figure is 95.49%; as for WWWLRKIW-NH2, 96.57%.
